PubChem BioAssay AID743121, NCATS, 2013

Assay: 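Knock-downs that sensitise breast cancer cells to camptothecin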 (primary screen)
Cell system: MDA-MB-231 cells, a human breast cancer line
Knock-down reagent: single siRNA against human genes, 20 nM siRNA (0.8 pmol per well)
Timing: 120 h (drug added 48 h after transfection, read 72 h later)
Conditions: camptothecin 20 nM (about EC30) for 72 h; vehicle 0.1% DMSO in parallel plates
Measured: 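CellTiter-Glo ATP signal, scaled to control siRNA as percent viability; sensitisation given as log2 of untreated divided by camptothecin-treated viability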
Direction: log2 vehicle/camptothecin viability: higher = stronger sensitisation to camptothecin
Hit rule: 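Each gene scored by redundant siRNA activity (RSA) over its individual siRNA ratios; a gene is called active at p < 0.001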
In all, the deposit lists about 26,000 reagents; this is a part drawn at random. In the full data, 167 (0.63%) are marked active. 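Calls are per gene from RSA p-values that are not deposited; an individual active-marked siRNA can sensitise only weakly.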 A number with no mark means an inactive call. The numbers tell different reagents against one gene apart. Further read-outs or replicates are left out here. No sequences are given here.

gene | siRNA no. | log2 vehicle/camptothecin viability
PMPCA | 1 | 0.277
PMPCA | 2 | -0.087
PMPCA | 3 | -0.395
PMPCA | 4 | -0.326
TNR | 1 | 0.0536
TNR | 2 | -0.000128
TNR | 3 | -0.549
TNR | 4 | 0.264
GPIHBP1 | 1 | -0.277
GPIHBP1 | 2 | -0.247
GPIHBP1 | 3 | -0.152
GPIHBP1 | 4 | -0.305
ATP2B2 | 1 | -0.159
ATP2B2 | 2 | 0.123
ATP2B2 | 3 | -0.177
ATP2B2 | 4 | -0.472
ASCL1 | 1 | -0.778
ASCL1 | 2 | -0.474
ASCL1 | 3 | -0.0366
ASCL1 | 4 | -0.135
PDE4B | 1 | -0.0782
PDE4B | 2 | -0.23
PDE4B | 3 | -0.149
PDE4B | 4 | -0.604
SPAM1 | 1 | -0.163
SPAM1 | 2 | -0.0991
SPAM1 | 3 | -0.36
SPAM1 | 4 | 0.117
CATSPER4 | 1 | 0.00914
CATSPER4 | 2 | 0.112
CATSPER4 | 3 | -0.186

Continued; the last 10 above are carried over.
gene | siRNA no. | log2 vehicle/camptothecin viability
PDE4B | 2 | -0.23
PDE4B | 3 | -0.149
PDE4B | 4 | -0.604
SPAM1 | 1 | -0.163
SPAM1 | 2 | -0.0991
SPAM1 | 3 | -0.36
SPAM1 | 4 | 0.117
CATSPER4 | 1 | 0.00914
CATSPER4 | 2 | 0.112
CATSPER4 | 3 | -0.186
GEMIN6 | 1 | -0.0046
GEMIN6 | 2 | 0.0903
GEMIN6 | 3 | 0.158
GEMIN6 | 4 | 0.317
CYP3A5 | 1 | -0.0371
CYP3A5 | 2 | 0.0172
CYP3A5 | 3 | -0.0421
KLK5 | 1 | -0.46
KLK5 | 2 | 0.806
KLK5 | 3 | -0.271
KLK5 | 4 | 0.00588
CD36 | 1 | -0.311
CD36 | 2 | -0.0418
CD36 | 3 | -0.154
CD36 | 4 | -0.376
MCCC2 | 1 | -0.00836
MCCC2 | 2 | 1.12
MCCC2 | 3 | 0.788
MCCC2 | 4 | -0.277
GNGT2 | 1 | 0.229
GNGT2 | 2 | -0.136
GNGT2 | 3 | 0.00338
GNGT2 | 4 | -0.0949
SLAMF6 | 1 | -0.294
SLAMF6 | 2 | -0.389
SLAMF6 | 3 | 0.0212
SLAMF6 | 4 | 0.00327
TLK1 | 1 | -0.197
TLK1 | 2 | 0.165
TLK1 | 3 | -0.24
TLK1 | 4 | 0.00318
GULP1 | 1 | -0.0261
GULP1 | 2 | 0.0899
GULP1 | 3 | 0.0323
RPS6KL1 | 1 | -0.775
RPS6KL1 | 2 | 0.109
RPS6KL1 | 3 | -0.444
RPS6KL1 | 4 | -0.174
RARA | 1 | -0.15
RARA | 2 | -0.222
RARA | 3 | -0.133
RARA | 4 | -0.148
UNC5B | 1 | -0.112
UNC5B | 2 | 0.183
UNC5B | 3 | -0.378
UNC5B | 4 | -0.0113
SS18 | 1 | -0.0462
SS18 | 2 | -0.0299
SS18 | 3 | -0.0254
SS18 | 4 | 0.238
MS4A4A | 1 | 0.0184
MS4A4A | 2 | -0.228
MS4A4A | 3 | 0.321
MS4A4A | 4 | -0.315
NEIL2 | 1 | 0.0475
NEIL2 | 2 | 0.0598
NEIL2 | 3 | -0.0256
NEIL2 | 4 | -0.483
